The target of this experiment is Dog sEH (Canis lupus familiaris, UniProt A0A8I3NJL8). In words: Primary screen (end point) of the sEH inhibitor library, PHOME substrate. Conditions: [I] = 100 nM, primary end-point screening; 0.1 µM. The experiment is classed as biochemical.

Sequences of proteins named here, by UniProt entry; tags and fusion partners are left off. Residues count along the entry.
UniProt A0A8I3NJL8, 1-556: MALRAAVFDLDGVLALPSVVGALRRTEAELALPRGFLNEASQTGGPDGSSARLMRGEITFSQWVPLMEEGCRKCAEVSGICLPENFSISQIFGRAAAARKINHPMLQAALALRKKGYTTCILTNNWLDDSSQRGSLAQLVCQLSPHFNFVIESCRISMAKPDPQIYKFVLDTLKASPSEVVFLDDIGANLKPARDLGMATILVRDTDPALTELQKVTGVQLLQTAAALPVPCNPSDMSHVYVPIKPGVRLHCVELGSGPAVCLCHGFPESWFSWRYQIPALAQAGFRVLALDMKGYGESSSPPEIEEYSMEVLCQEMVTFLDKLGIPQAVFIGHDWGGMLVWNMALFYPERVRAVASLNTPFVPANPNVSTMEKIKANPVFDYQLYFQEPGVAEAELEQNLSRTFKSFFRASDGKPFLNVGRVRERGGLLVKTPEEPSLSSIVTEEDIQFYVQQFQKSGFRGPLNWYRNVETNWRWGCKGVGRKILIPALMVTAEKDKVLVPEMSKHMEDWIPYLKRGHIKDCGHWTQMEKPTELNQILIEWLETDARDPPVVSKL

For part of its entries the source gives two or more results. This is not the full list of results. An entry can have further records. Values given together differ for a reason that is not stated; some may be repeats, others may stem from another dose, organism or construct than stated.

Regarding `O=C(NCCCc1ccccc1)NC12CC3CC(CC(C3)C1)C2`, the “Dog sEH Inhibition (%) P.” value was 90% and < 90%.

These data come from publication PMC7479175, “Selection of Potent Inhibitors of Soluble Epoxide Hydrolase for Usage in Veterinary Medicine” (Frontiers in Veterinary Science, 2020).
